Assay results from article PMC8163987.

Target: YhcB fused to sequential peptide affinity tag (E. coli) (UniProt P0ADW3)
Assay: affinity purification with mass spectrom

binding: no binding
B1: YhcB fused to sequential peptide affinity tag (protein, UniProt P0ADW3 1-132)
chain: MTWEYALIGLVVGIIIGAVAMRFGNRKLRQQQALQYELEKNKAELDEYREELVSHFARSAELLDTMAHDYRQLYQHMAKSSSSLLPELSAEANPFRNRLAESEASNDQAPVQMPRDYSEGASGLLRTGAKRD

These are yes or no findings as the source states them, for the method shown. Binding seen in cells or lysates may run through a third protein. A yes stands for co-enrichment or nearness to the bait. Other partners may have been found. No binding means not detected with the bait. Where a sequence is shown, tags or fusion partners need not be part of it.
